The numbers were not newly measured in paper PMC7891696, “The molecular targets of ivermectin and lotilaner in the human louse Pediculus humanus humanus: New prospects for the treatment of pediculosis” (PLoS Pathogens, 2021), which cites them from elsewhere.

Usually EC50 stands for the concentration that produces a half-maximal response.

The subject of this data set is RDL-2. The settings on record: GABA on RDL-2 subunit; cited from earlier work.

`NCCCC(=O)O` [GABA, γ-aminobutyric acid]: the concentration giving a half-maximal response (EC50) was 2400 ± 300 nM.
